According to article PMC7371716:
No constants are given. Whether binding was seen depends on the method and setting. In cells and extracts the contact can be indirect. Some results given as binding are weak or reduced against the parent protein; the word gives no strength. Sequences can lack the tags named with a protein.

How the values were obtained:
Assay in all cases: co-IP; lysates of transiently transfected HEK293 (legends: HEK293T) cells, 50 mM Tris-Cl pH7.4, 150 mM NaCl, 0.5 mM EDTA with 1% LMNG or 0.5% Triton x-100; GFP-tagged PDZD8 constructs precipitated on GFP-Trap agarose beads, 4 °C; western blot with anti-Protrudin or anti-Rab7
PDZD8-GFP (full length) = biological target: T1, PDZD8-GFP (full length) (UniProt Q8NEN9)
T1 sequence: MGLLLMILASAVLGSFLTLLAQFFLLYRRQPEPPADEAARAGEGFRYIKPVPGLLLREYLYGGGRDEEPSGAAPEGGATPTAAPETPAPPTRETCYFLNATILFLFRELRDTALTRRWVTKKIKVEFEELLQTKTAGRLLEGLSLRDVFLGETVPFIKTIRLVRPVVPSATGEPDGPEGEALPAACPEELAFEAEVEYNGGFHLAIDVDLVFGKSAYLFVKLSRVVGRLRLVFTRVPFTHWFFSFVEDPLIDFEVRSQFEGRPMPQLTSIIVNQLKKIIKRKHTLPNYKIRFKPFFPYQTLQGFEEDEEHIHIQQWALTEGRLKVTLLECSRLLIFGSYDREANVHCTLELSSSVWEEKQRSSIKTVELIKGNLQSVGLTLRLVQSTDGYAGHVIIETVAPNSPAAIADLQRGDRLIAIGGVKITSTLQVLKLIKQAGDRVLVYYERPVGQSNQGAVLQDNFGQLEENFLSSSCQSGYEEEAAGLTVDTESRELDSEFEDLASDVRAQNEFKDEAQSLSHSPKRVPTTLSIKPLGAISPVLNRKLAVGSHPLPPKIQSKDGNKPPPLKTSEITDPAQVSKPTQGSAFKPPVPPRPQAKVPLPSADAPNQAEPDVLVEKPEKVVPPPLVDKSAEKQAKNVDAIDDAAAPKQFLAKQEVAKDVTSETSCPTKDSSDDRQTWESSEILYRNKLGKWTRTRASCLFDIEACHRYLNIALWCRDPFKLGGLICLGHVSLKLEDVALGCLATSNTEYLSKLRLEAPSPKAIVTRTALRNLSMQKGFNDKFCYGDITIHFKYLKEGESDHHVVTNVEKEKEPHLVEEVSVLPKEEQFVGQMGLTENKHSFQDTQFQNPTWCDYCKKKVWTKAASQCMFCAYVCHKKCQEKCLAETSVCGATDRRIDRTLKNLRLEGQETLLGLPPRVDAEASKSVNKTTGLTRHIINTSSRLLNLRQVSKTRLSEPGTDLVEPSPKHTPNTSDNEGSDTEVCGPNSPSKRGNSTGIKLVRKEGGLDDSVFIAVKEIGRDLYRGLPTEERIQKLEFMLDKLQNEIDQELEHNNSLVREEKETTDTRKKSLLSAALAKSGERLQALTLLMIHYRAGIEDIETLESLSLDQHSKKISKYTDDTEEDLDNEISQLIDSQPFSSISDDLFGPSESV

PDZD8ΔCC-GFP (1-1000) = biological target: T2, PDZD8ΔCC-GFP (1-1000) (UniProt Q8NEN9)
T2 sequence: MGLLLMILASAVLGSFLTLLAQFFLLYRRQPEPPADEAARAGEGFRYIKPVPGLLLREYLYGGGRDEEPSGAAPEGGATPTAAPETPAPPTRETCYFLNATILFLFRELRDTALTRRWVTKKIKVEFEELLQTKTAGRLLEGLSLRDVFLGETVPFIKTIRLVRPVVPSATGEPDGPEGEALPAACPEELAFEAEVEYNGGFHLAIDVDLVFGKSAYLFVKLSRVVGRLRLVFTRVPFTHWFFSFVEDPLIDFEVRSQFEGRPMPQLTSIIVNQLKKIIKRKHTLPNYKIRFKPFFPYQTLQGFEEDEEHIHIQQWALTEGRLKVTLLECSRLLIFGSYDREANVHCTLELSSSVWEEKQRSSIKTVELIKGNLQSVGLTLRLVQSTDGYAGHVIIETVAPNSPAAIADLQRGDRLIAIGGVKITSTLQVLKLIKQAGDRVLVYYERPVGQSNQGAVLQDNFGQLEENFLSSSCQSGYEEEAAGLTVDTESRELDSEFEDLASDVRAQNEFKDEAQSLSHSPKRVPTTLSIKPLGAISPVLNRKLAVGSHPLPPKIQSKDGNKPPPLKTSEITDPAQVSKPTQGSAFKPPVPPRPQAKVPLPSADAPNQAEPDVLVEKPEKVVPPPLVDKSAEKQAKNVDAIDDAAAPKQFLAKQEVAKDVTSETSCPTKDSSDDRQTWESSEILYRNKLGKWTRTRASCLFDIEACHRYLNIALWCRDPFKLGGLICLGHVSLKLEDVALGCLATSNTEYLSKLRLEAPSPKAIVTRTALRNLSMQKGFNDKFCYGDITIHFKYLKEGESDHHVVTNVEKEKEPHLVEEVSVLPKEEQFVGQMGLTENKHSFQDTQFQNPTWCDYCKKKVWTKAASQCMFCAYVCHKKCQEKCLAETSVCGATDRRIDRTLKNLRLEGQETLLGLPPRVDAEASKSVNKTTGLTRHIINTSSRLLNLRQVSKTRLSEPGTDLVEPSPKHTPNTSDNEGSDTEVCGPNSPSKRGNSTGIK

PDZD8 (1-300)-GFP = biological target: T3, PDZD8 (1-300)-GFP (UniProt Q8NEN9)
T3 sequence: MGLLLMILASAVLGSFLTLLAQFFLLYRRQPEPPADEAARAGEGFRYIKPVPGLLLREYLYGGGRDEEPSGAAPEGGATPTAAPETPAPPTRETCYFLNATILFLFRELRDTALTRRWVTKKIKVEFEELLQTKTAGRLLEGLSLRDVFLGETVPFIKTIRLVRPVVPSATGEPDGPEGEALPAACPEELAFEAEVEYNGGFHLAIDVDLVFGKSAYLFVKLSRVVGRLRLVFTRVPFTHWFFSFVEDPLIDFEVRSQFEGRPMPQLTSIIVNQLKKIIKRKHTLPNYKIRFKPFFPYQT

Measured: binding

B1: Protrudin-mCherry (protein, UniProt Q5T4F4 1-411)
chain: MQTSEREGSGPELSPSVMPEAPLESPPFPTKSPAFDLFNLVLSYKRLEIYLEPLKDAGDGVRYLLRWQMPLCSLLTCLGLNVLFLTLNEGAWYSVGALMISVPALLGYLQEVCRARLPDSELMRRKYHSVRQEDLQRGRLSRPEAVAEVKSFLIQLEAFLSRLCCTCEAAYRVLHWENPVVSSQFYGALLGTVCMLYLLPLCWVLTLLNSTLFLGNVEFFRVVSEYRASLQQRMNPKQEEHAFESPPPPDVGGKDGLMDSTPALTPTEDLTPGSVEEAEEAEPDEEFKDAIEETHLVVLEDDEGAPCPAEDELALQDNGFLSKNEVLRSKVSRLTERLRKRYPTNNFGNCTGCSATFSVLKKRRSCSNCGNSFCSRCCSFKVPKSSMGATAPEAQRETVFVCASCNQTLSK
binds: all assays above
